Assay: general procedure: Fmoc solid-phase peptide synthesis; Fmoc-amino acid preloaded Wang (4-alkoxybenzyl alcohol) resins, 100-200 mesh; HBTU
Conditions: whole synthesis, A280nm

Substance | final HPLC purity [%]
[L-Trp3]endomorphin-1 (EM-1) | 98.26
[D-Trp3]endomorphin-1 (EM-1) | 98.68
